# Results from the supplement of paper PMC11237882.
# This is one part of the list. Values are worked out from sequencing counts and are noisy.
# T1: Homer1 EVH1 domain
# T1 chain: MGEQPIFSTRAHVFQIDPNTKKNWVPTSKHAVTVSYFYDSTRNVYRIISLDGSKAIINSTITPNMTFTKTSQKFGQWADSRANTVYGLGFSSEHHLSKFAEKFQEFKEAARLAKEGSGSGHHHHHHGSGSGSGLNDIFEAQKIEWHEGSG
# Biological target: T1, Homer1 EVH1 domain
# Test: enrichment score (AUC of log2 frequency ratio across FACS sorting rounds) (log2 AUC); higher = stronger enrichment for Homer1 EVH1 binding
row,Binder,enrichment score
1,QTFSIMAVLWALVSVSFLVLSCFPSLFPPGHGPLVS,3.07
2,LGRTLSRWVWISLYYVAFYVVMTGLFALCLYVLMQT,0.695
3,TSPIADFPAPPPYSAVTPPPDAFSRGVSSPIAGPAQ,-2.24
4,LLFFTALMITVPIGLYFTTKSYIFEGALGMSNRDSY,1.62
5,MPSSVSWGILLLAGLCCLVPVSLAEDPQGDAAQKTD,3.94
6,VLTGLGFALCYSPAIAMVVKYFSRRKALAYGIAMSA,0.0737
7,KNVTGFFQSLKSILTNPLYVIFLLLTLLQVSSFIGS,1.54
8,DLEAEKLVMFQRRYYKPGLLMMCFILPTLVPWYFWG,3.23
9,MRPVSVWQWSPWGLLLCLLCSSCLGSPSPSTGPEKK,0.315
10,QAASNGAVDAIGLATNVAANLIAFLAVLAFINAALS,5.05
11,LFLFFYIAIVLGNLLIVVTVQAHAHLLQSPMYYFLG,-2.7
12,MGNRAHRPGRAAASATPSRLRSRTRAVHLPHRAQQC,1.62
13,PPQAFSKTKVRDLGRGGLYAFSKEEKVSEAQRVEAY,4.5
14,QYPAKGGPQQPHNKGCVAPTAGLAALLLAVAAGVLL,1.47
15,MQRLCVYVLIFALALAAFSEASWKPRSQQPDAPLGT,1.97
16,YFVFCLQIIISIGLMFYVVHRAQVELNAAIVTCEME,1.16
17,VKRFPYGPYIEDRFFLVLQNEFSVFFILSFMYIELI,0.0269
18,TLVFAVFMGVWVTLFLEFWKRRQAELEYEWDTVELQ,3.84
19,SFFTGDVNYLFEGVCYGPLVLITCASLVICSISSYF,-2.29
20,GLAGLFAGVFPRMAAISLGGFIFLGAYDRTHSLLLE,-1.02
21,VNKYLDFSLFKHRGFLIYLSGNVIMFLGFFAPIIFL,2.56
22,QAISLLIVTNVGAYILYFFCATLSYYFVFDHALMKH,1.86

row,Binder,enrichment score
1,SYLSLQTVTLAVLLFGYAINCLERRDKSQIFTILEH,2.04
2,ISLVLCVVLGLMLCMQRCRNTSQFDGDYISKLPKSN,1.11
3,GFCAFLGSWLVPFAYLTVLDLSKSLSAALLTAALLT,0.199
4,RSRAFSTWGSHIIAVALFFGSGTFTYLTTSFPGSMN,-0.488
5,LIKYRRLRIMTNIYLLNLAISDLLFLVTLPFWIHYV,-2.37
6,RLIFITVLFSIIIWVVWISMLLRGNPQFQRQPQWDD,-0.284
7,MVVTPRRAAVAIAGCWILSFVVGLTPMFGWNNLSAV,1.63
8,FCDIAPLLQVACINTHLIEKINFLLSALVILSSLAF,-0.276
9,PPCKTGAWIVPAIMACYLLVANILLVNPLIAVFNNT,3.9
10,MKILFVEPAIFLSAFAMTLTGPLTTQYVYRRIWEET,-3.11
11,RSGLPRWILACCLFLSVLVMLWLSCSTLVTAPGQHL,2.07
12,MLFSALLLEVIWILAADGGQHWTYEGPHGQDHWPAS,1.25
13,AFKDMKASPEIISGRMTTALILYSAIFMRFAYRVQP,-0.321
14,NKGSGTTSGTTRLLSGHTCFTLTGLLGTLVTMGLLT,3.48
15,SPNPVAMETRSDNRPSVPVQFQYFLPTYPPSAYPRS,4.51
16,SRGRHREKEDIKITKERTPESEEENVEWETNRDDSG,-0.0789
17,MEETKEWKSEEELHRRKSSRRHSLNQQTKALQYLRR,-0.697
18,GLRAHLAAIERWEDRPRRSQVLQVLGLALFLTLGTL,2.72
19,MVSYWDTGVLLCALLSCLLLTGSSSGSKLKDPELSL,2.66
20,SLCWGLSVLYGLLLTFLLTRVTFCGPREIHYLFCDM,2.35
21,HPDAVPALFRTVPVFTLPSQLPDFLGALQQPRAPRS,-2.32
22,NDIREKREKIKEMMKHAWDNYRTYGWGHNELRPIAR,-2.64
